This passage reports binding results from patent publication US20210364527A1.

Protein sequences, listed by entry. Tags and fused reporters are not part of them. Lines headed by an entry give the natural chain unless they say otherwise; changes in a name come on top.
UniProt Q6WKZ8: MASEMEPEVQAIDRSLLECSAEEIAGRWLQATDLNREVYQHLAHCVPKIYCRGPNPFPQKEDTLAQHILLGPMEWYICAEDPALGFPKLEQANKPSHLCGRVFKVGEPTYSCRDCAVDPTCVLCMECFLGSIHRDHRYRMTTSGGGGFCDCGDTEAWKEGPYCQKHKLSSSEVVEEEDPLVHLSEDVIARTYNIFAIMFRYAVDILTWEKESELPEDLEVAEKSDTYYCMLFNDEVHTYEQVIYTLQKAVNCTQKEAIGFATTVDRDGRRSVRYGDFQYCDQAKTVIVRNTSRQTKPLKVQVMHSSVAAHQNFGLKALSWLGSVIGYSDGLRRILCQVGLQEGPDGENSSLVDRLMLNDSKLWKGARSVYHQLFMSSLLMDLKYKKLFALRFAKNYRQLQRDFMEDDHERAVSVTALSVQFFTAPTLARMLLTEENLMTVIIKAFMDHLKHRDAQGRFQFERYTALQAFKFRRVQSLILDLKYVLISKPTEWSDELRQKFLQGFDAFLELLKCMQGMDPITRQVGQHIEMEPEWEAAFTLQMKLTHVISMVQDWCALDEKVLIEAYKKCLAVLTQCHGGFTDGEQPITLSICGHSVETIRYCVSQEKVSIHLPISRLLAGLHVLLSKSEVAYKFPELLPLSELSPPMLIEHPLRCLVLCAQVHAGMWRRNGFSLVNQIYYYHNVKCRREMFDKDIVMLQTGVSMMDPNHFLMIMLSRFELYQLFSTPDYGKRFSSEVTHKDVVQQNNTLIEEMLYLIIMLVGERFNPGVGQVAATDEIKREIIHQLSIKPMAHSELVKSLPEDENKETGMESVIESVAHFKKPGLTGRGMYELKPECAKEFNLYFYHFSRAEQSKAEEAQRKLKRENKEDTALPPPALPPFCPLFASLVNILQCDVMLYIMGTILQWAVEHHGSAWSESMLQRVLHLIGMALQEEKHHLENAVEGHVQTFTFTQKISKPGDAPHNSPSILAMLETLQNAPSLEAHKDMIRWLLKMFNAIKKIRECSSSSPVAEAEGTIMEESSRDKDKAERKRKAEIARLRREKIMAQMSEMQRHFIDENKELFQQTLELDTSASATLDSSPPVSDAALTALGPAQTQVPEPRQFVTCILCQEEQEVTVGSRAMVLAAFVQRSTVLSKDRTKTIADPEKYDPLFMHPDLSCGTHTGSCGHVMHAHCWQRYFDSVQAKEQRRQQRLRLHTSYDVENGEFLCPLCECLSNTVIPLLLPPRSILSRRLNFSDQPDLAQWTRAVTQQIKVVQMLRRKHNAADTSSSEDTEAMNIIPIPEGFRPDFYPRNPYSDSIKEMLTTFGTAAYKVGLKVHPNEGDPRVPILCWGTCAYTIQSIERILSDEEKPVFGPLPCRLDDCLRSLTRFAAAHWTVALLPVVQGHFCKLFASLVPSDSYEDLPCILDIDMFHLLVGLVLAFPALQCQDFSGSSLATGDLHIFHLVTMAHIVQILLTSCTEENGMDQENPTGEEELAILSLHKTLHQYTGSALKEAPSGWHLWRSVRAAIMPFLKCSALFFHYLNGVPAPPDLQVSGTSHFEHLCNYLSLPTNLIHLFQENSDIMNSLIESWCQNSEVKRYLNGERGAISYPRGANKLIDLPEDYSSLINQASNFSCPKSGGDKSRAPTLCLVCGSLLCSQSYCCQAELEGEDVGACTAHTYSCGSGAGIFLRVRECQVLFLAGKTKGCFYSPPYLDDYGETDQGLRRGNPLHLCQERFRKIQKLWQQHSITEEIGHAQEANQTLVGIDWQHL

These are yes or no findings as the source states them, for the method shown. Some binding calls cover weakened binding; strength is not graded here.

The target of assay [1] is T1, FITC-labeled KA peptide …-FITC.
T1 sequence (peptide, C-terminal FITC): KAKLDEESILKQK
Description: fluorescence polarization titration. For orientation: In fluorescence polarisation assays a small probe gives low polarisation when free and higher when bound to something large.

Assay [2] concerns the target T2, FITC-labeled RA peptide …-FITC.
T2 sequence (peptide, C-terminal FITC): RAKLDEESILKQK
Description: fluorescence polarization titration.

For the substance “Mus musculus UBR-box domain (PS535) (from UniProt Q6WKZ8 98-168)”, the binding entry in assay [1] and in assay [2] was “binds” in each case.
